# According to PubChem BioAssay AID1439 (NMMLSC, 2008):
# By UniProt entry, the sequences of proteins in these tests, tags left out.
# UniProt P09471, whole entry, looked up: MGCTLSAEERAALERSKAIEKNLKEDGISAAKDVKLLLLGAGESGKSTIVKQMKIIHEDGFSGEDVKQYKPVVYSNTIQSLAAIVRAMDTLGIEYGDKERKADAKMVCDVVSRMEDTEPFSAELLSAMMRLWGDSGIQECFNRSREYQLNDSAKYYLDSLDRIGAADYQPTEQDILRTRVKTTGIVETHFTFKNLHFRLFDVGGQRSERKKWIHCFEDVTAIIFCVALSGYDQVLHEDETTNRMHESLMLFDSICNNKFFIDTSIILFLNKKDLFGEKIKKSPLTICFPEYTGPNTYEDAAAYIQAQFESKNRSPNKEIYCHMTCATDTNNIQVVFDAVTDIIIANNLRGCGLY
# Out of some 220,000 compounds screened, about 770 (0.35%) were called active. Inconclusive results, whose numbers are uncertain, are shown with a selection of clear calls. Rule as the data show it: active = binding response below about 49% or above about 150%; inconclusive = no clear call, values can overlap the other calls; inactive = in between.
# Biological target: Guanine nucleotide-binding protein G(o) subunit alpha (Homo sapiens) (UniProt P09471)
# Test: RGS7-Galphao binding modulators, primary screen, biochemical, multiplexed bead flow cytometry (AID 1439);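 also: fluorescent Galphao held in activated GDP-AlF4 state binding bead-coupled RGS7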
# Conditions: at 10 µM, actives lie on both sides
row,Compound,binding response (% of control)
1,CC(C)[C@H](NC(N)=O)C(=O)NNC(=O)COc1cccc(C(F)(F)F)c1,inconclusive: 90.6%
2,O=c1c(=O)n2c(nn1Cc1ccc(F)cc1)sc1ccccc12,inconclusive: 86.1%
3,OCCC1CN(Cc2cn[nH]c2C2CCCCC2)CCN1C1CCCCC1 (configuration not stated),inactive: 100%
4,CCOC(=O)CNc1nc(Cl)nc(Nc2ccc(Cl)cc2)n1,inconclusive: 95%
5,O=C(O)c1ccc(COc2ccccc2/C=C2\NC(=O)N(Cc3ccccc3F)C2=O)cc1,inconclusive: 108%
6,CCOC(=O)C1CCN(C(=O)c2cc3cc(Br)ccc3oc2=O)CC1,inconclusive: 98.8%
7,CC(O)[C@H]1CNC(=O)C(=O)N1CCc1cc(C(F)(F)F)cc(C(F)(F)F)c1 (some centres not stated),inconclusive: 109%
8,CC(C(=O)O)n1c(C(F)(F)F)nc2ccccc21 (configuration not stated),inactive: 103%
9,CCC(C)C(NC(N)=O)C(=O)Nc1ccc(C(=O)OC)cc1 (configuration not stated),inconclusive: 94.6%
10,COc1ccc(C(=O)Nc2ccc(S(=O)(=O)Nc3onc(C)c3C)cc2)c(OC)c1,inactive: 98.4%
11,CCCNC(=O)N1c2ccccc2Sc2ccccc21,inconclusive: 565%
12,CC(Oc1ccccc1)C(=O)N1CCN=C1SCc1ccc(F)cc1 (configuration not stated),inconclusive: 117%
13,C=CCN1C=CC(=O)CC1,inconclusive: 168%
14,O=C(CSCc1ccccc1)Nc1ccc(S(=O)(=O)N2CCOCC2)cc1,inactive: 97.5%
15,Cc1nn(-c2ccccc2)nc1C(=O)c1c(C)[nH]n(-c2ccccc2)c1=O,inconclusive: 94.8%
16,O=C(Nc1cccc([N+](=O)[O-])c1)Nc1cccs1,inactive: 97.9%
17,CCSC1=NN2CCS(=O)(=O)N=C2S1,inconclusive: 97.8%
18,O=C(COC(=O)/C=C/c1cccc([N+](=O)[O-])c1)NCc1ccc2c(c1)OCO2,inconclusive: 66.3%
19,CCOc1ccc(C(C)NC(=O)Cc2ccccc2)cc1OCC (configuration not stated),inactive: 100%
20,Cc1ccc(Cc2c(C)[nH]c(=S)[nH]c2=O)cc1,inconclusive: 108%
21,CC(/C=N/NC(=O)NC1CCCCC1)=C\c1ccccc1,inconclusive: 139%
22,CCn1c(SCC(=O)Nc2ccc3[nH]c(=O)[nH]c3c2)nnc1-c1ccccc1,inconclusive: 90.9%
23,COc1ccc(-n2c(SCC(=O)Nc3cc(C)on3)nc3c(c2=O)SCC3)cc1,inactive: 117%

row,Compound,binding response (% of control)
1,Cc1[nH]c2ccccc2c1SCc1nnc(SCc2ccccc2)n1C,inconclusive: 119%
2,Cc1cccc(-n2ncc3c(N4CCC5(CC4)OCCO5)ncnc32)c1,inconclusive: 126%
3,CC(C)(CCO)NC(=S)NC1CC2C=CC1C2 (configuration not stated),inconclusive: 26.9%
4,CCN(CC)CCNC(=O)/C(=C/c1cn(C)c2ccccc12)NC(=O)c1ccc(OC)c(OC)c1,inconclusive: 96.1%
5,CCCOc1ccccc1/C=C(\C#N)C(=O)Nc1cccnc1,inconclusive: 127%
6,COC(=O)c1ccc(NC(=O)C(=O)c2cccn2C)cc1,inconclusive: 121%
7,CCOP1(=O)OCC2OC(n3cnc4c(N)ncnc43)C(O)C2O1 (configuration not stated),inconclusive: 112%
8,CN(C)c1cc(N/N=C/c2ccc(Cl)cc2)nc(N(C)C)n1,inactive: 101%
9,Cc1cc2nc(C)c3c(n2n1)CCC3,inconclusive: 81.6%
10,O=C(CSc1nc2ccccc2s1)N/N=C/c1ccccc1C(=O)O,inconclusive: 133%
11,CCOc1ncccc1C(=O)Nc1ccc(S(=O)(=O)NC2=NCCCCC2)cc1,inconclusive: 103%
12,CCN(CC)CCNC(=O)c1ccccc1C(=O)c1ncc[nH]1,inactive: 139%
13,CCOc1ccccc1NC(=O)c1cc(C(=O)Nc2ccccc2OCC)cc(N2C(=O)CCC2=O)c1,inactive: 98%
14,CN(N)C(=S)Nc1ccc(F)cc1,inconclusive: 105%
15,COCCCNC(=O)/C(C#N)=C1\N=C(NC(=O)c2cccs2)c2ccccc21,inconclusive: 14.8%
16,O=c1[nH]c(SCc2ccccc2)nc2[nH]ncc12,inactive: 101%
17,Cc1nc(-c2noc(-c3ccccc3Cl)n2)c(C(F)(F)F)o1,inconclusive: 104%
18,Cc1ccsc1C1CC(=O)OC2=C1C(=O)CC(C)(C)C2 (configuration not stated),inactive: 105%
19,CCOc1ccc(C(=O)NCC(=O)OCC(=O)Nc2ccccc2OCC)cc1,inactive: 106%
20,O=C(Nc1ccc(NC(=O)c2cccs2)cc1)c1cccnc1,inconclusive: 122%
21,O=C(CCCCCN1C(=O)c2cccc3cccc(c23)C1=O)NCc1ccco1,inconclusive: 220%
22,CNC(=O)c1c(C)[nH]c(=S)c(C#N)c1-c1ccco1,inconclusive: -51.8%
23,COc1ccccc1C(=O)NNC(=O)c1ccc(NC(=O)C(C)C)cc1,inconclusive: 78.5%

# Quoted from the listing.
# binding response (% of control) with `O=c1c(=O)n2c(nn1Cc1ccc(F)cc1)sc1ccccc12` is entered as inconclusive: 86.1%
# binding response (% of control) with `CCOc1ccccc1NC(=O)c1cc(C(=O)Nc2ccccc2OCC)cc(N2C(=O)CCC2=O)c1` is entered as inactive: 98%

# Further results:

row,Compound,binding response (% of control)
1,O=c1c2c3nc4ccccc4nc3n(/N=C/c3ccccn3)c2ncn1-c1ccccc1,inconclusive: 98.2%
2,Clc1ccccc1/C=C/c1nc(-c2cccnc2)no1,inconclusive: 105%
3,NCCCC[C@H]1CNC(=O)C(=O)N1CCC12CC3CC(CC(C3)C1)C2,inconclusive: 106%
4,COc1ccc(CCNC(=O)CN(C)S(=O)(=O)c2ccc3c(c2)CCC(=O)N3)cc1OC,inactive: 96.2%
5,COc1cccc(C(=O)C2CCCN(C(=O)c3cccc(C#CC(C)(C)O)c3)C2)c1 (configuration not stated),inconclusive: 93.2%
6,CC(C)C(C(=O)Nc1ccc2c(c1)OCCOCCOCCOCCO2)N1C(=O)c2ccccc2C1=O (configuration not stated),inactive: 101%
7,O=C(CCN1CCN(CCO)CC1)Nc1cccc(Br)c1,inconclusive: 184%
8,COc1ccc(S(=O)(=O)Nc2ccc(-n3cccc3)cc2)cc1,inconclusive: -143%
9,O=C(O)CCCCC1SCC2NC(=O)NC21 (configuration not stated),inconclusive: 57.1%
10,COc1ccc(-c2cc(C(=O)OCC(=O)N(C)C3CCS(=O)(=O)C3)c3ccccc3n2)cc1OC (configuration not stated),inactive: 99.2%
11,COc1ccc(NC(=O)c2ccc(NC(=O)CN(C)CC(=O)Nc3c(C)cccc3C)cc2)cc1,inconclusive: 140%
12,O=C(NCCNC(=O)c1ccccc1)c1ccccc1,inconclusive: 112%
13,Cc1nc(C)c(/C(O)=C\c2nc3ccc([N+](=O)[O-])cc3oc2=O)o1,inconclusive: 106%
14,CC(C)(C)OC(=O)N1CCC[C@H]1C(=O)N/N=C/c1ccc2ncccc2c1,inconclusive: 46.9%
15,COC(=O)c1c(O)cc(=O)n2c1CCCCC2,inconclusive: 102%
16,O=C(Nc1cccc(Cl)c1)OC1CCCCc2cccnc21 (configuration not stated),inconclusive: 178%
17,CCCCCCNC(=O)c1ncn[nH]1,inconclusive: 84.2%
18,Cc1ccc(-n2nnnc2SCC(=O)c2cc(C)n(CC3CCCO3)c2C)cc1 (configuration not stated),inactive: 92.7%
19,COc1cc(C(CCN2CCN(c3ccccc3)CC2)c2c(OC)cc(OC)c3c(C)cc(=O)oc23)cc(OC)c1OC (configuration not stated),inconclusive: 121%
20,CC1=C(C(=O)Nc2ccccc2C(F)(F)F)C(c2ccc(C)s2)NC(=S)N1 (configuration not stated),inconclusive: 96%
21,O=C(O)c1cccc(N/N=C/c2cn(-c3ccccc3)nc2-c2cccs2)c1,inconclusive: 84.1%
22,COC(=O)Cc1cc(=O)oc2cc(O)ccc12,inactive: 105%
23,CC(C)c1cc(C(=O)N2CCCC(CCC(=O)NCc3ccccc3F)C2)n(C)n1 (configuration not stated),inconclusive: 103%

row,Compound,binding response (% of control)
1,Cc1ccc(C)c(CSc2nnc([C@@H]3CCCN3)o2)c1,inconclusive: 112%
2,FC(F)(F)c1ccc2c(c1)n(Cc1ccccc1)c1[n+]2CCCCC1,inconclusive: 164%
3,Cc1cc(/C(N)=N/OC(=O)c2cccc(Cl)c2)no1,inconclusive: 76.2%
4,Cn1cc(CNCc2cn(C)nc2-c2ccc(C3CCCCC3)cc2)cn1,inconclusive: 90.2%
5,COc1ccc(S(=O)(=O)Nc2ccc(O)c(Sc3ncn[nH]3)c2)cc1,inactive: 109%
6,CCOC(=O)C1CCN(c2c(Nc3ccc(C)c(C)c3)c(=O)c2=O)CC1,inconclusive: 130%
7,Cn1cc(CN2CCC(CO)(CCCc3ccccc3)CC2)c(-c2ccccc2)n1,inconclusive: 102%
8,O=C(O)CCN1C(=O)c2ccc(NC(=O)c3ccco3)cc2C1=O,inconclusive: 83%
9,CCCOc1cccc(NC(=O)OC2CCN(C)CC2)c1,inactive: 102%
10,COCCn1c(SCc2ccc(OC)c(F)c2)nc2ccccc2c1=O,inconclusive: 112%
11,Nc1c(-c2ccccc2)c(CN2CCOCC2)nn1-c1cccc([N+](=O)[O-])c1,inconclusive: 86.8%
12,O=C(Nc1nc2c(s1)C(=O)CCC2)c1ccccc1,inactive: 99.5%
13,Cc1ccc(C)c(C(=O)CN2C(=O)NC3(CCCCCCC3)C2=O)c1,inconclusive: 93.6%
14,COC(=O)c1c(C)[nH]c(C(=O)/C=C/c2ccc(C)cc2)c1C,inconclusive: 255%
15,CCOC(=O)C1=C(C)NC2=C(C(=O)CC(C)(C)C2)C1c1ccc(O)c(OCC)c1 (configuration not stated),inconclusive: 130%
16,Cc1ccc(Oc2ncccc2N)c2c1CCC2,inconclusive: 82%
17,Cc1ccccc1-n1c(-c2ccc3ccccc3n2)n[nH]c1=S,inconclusive: 124%
18,CC(C)(C)OC(=O)NCCCC[C@H](NC(=O)c1[nH]cnc1C(=O)Nc1ccccc1)C(=O)OC(C)(C)C,inconclusive: 49.4%
19,Cc1ccc(S(=O)(=O)N(C)C)cc1NC(=O)Nc1ccccc1,inconclusive: 130%
20,O=S(=O)(Nc1nc2ccccc2nc1NCC1CCCO1)c1ccccc1 (configuration not stated),inconclusive: 179%
21,O=c1[nH]c2ccccc2nc1-c1ccccc1,inconclusive: 112%
22,C=CCSc1nnc2c(n1)OC(C)=Nc1ccc(Br)cc1-2,inconclusive: 103%
23,CCN(Cc1cc(=O)[nH]c2ccccc12)C(=O)C(C)C,inconclusive: -71.5%

# 5 entries from above, ordered by SMILES length, low to high.
row,Compound,binding response (% of control)
22,C=CCSc1nnc2c(n1)OC(C)=Nc1ccc(Br)cc1-2,inconclusive: 103%
8,O=C(O)CCN1C(=O)c2ccc(NC(=O)c3ccco3)cc2C1=O,inconclusive: 83%
13,Cc1ccc(C)c(C(=O)CN2C(=O)NC3(CCCCCCC3)C2=O)c1,inconclusive: 93.6%
6,CCOC(=O)C1CCN(c2c(Nc3ccc(C)c(C)c3)c(=O)c2=O)CC1,inconclusive: 130%
15,CCOC(=O)C1=C(C)NC2=C(C(=O)CC(C)(C)C2)C1c1ccc(O)c(OCC)c1 (configuration not stated),inconclusive: 130%
